Common to all, as to experiment: fluorescence polarisation
Assay [1] deals with T1, Alexa 555 monomeric SMAC (V81D), a.a. 56-239 with a C-terminal cysteine (UniProt Q9NR28).
T1 sequence (chain, Alexa Fluor 555 on the C-terminal cysteine): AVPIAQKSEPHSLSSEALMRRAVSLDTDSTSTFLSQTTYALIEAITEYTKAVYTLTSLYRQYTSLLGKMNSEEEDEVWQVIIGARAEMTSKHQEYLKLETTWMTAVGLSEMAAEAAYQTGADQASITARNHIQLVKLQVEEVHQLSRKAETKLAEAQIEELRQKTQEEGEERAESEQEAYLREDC

Sequences of proteins named here, by UniProt entry; tags and fusion partners are left off. A change or cut given only in a name is not applied to a line headed by its entry.
UniProt Q9NR09: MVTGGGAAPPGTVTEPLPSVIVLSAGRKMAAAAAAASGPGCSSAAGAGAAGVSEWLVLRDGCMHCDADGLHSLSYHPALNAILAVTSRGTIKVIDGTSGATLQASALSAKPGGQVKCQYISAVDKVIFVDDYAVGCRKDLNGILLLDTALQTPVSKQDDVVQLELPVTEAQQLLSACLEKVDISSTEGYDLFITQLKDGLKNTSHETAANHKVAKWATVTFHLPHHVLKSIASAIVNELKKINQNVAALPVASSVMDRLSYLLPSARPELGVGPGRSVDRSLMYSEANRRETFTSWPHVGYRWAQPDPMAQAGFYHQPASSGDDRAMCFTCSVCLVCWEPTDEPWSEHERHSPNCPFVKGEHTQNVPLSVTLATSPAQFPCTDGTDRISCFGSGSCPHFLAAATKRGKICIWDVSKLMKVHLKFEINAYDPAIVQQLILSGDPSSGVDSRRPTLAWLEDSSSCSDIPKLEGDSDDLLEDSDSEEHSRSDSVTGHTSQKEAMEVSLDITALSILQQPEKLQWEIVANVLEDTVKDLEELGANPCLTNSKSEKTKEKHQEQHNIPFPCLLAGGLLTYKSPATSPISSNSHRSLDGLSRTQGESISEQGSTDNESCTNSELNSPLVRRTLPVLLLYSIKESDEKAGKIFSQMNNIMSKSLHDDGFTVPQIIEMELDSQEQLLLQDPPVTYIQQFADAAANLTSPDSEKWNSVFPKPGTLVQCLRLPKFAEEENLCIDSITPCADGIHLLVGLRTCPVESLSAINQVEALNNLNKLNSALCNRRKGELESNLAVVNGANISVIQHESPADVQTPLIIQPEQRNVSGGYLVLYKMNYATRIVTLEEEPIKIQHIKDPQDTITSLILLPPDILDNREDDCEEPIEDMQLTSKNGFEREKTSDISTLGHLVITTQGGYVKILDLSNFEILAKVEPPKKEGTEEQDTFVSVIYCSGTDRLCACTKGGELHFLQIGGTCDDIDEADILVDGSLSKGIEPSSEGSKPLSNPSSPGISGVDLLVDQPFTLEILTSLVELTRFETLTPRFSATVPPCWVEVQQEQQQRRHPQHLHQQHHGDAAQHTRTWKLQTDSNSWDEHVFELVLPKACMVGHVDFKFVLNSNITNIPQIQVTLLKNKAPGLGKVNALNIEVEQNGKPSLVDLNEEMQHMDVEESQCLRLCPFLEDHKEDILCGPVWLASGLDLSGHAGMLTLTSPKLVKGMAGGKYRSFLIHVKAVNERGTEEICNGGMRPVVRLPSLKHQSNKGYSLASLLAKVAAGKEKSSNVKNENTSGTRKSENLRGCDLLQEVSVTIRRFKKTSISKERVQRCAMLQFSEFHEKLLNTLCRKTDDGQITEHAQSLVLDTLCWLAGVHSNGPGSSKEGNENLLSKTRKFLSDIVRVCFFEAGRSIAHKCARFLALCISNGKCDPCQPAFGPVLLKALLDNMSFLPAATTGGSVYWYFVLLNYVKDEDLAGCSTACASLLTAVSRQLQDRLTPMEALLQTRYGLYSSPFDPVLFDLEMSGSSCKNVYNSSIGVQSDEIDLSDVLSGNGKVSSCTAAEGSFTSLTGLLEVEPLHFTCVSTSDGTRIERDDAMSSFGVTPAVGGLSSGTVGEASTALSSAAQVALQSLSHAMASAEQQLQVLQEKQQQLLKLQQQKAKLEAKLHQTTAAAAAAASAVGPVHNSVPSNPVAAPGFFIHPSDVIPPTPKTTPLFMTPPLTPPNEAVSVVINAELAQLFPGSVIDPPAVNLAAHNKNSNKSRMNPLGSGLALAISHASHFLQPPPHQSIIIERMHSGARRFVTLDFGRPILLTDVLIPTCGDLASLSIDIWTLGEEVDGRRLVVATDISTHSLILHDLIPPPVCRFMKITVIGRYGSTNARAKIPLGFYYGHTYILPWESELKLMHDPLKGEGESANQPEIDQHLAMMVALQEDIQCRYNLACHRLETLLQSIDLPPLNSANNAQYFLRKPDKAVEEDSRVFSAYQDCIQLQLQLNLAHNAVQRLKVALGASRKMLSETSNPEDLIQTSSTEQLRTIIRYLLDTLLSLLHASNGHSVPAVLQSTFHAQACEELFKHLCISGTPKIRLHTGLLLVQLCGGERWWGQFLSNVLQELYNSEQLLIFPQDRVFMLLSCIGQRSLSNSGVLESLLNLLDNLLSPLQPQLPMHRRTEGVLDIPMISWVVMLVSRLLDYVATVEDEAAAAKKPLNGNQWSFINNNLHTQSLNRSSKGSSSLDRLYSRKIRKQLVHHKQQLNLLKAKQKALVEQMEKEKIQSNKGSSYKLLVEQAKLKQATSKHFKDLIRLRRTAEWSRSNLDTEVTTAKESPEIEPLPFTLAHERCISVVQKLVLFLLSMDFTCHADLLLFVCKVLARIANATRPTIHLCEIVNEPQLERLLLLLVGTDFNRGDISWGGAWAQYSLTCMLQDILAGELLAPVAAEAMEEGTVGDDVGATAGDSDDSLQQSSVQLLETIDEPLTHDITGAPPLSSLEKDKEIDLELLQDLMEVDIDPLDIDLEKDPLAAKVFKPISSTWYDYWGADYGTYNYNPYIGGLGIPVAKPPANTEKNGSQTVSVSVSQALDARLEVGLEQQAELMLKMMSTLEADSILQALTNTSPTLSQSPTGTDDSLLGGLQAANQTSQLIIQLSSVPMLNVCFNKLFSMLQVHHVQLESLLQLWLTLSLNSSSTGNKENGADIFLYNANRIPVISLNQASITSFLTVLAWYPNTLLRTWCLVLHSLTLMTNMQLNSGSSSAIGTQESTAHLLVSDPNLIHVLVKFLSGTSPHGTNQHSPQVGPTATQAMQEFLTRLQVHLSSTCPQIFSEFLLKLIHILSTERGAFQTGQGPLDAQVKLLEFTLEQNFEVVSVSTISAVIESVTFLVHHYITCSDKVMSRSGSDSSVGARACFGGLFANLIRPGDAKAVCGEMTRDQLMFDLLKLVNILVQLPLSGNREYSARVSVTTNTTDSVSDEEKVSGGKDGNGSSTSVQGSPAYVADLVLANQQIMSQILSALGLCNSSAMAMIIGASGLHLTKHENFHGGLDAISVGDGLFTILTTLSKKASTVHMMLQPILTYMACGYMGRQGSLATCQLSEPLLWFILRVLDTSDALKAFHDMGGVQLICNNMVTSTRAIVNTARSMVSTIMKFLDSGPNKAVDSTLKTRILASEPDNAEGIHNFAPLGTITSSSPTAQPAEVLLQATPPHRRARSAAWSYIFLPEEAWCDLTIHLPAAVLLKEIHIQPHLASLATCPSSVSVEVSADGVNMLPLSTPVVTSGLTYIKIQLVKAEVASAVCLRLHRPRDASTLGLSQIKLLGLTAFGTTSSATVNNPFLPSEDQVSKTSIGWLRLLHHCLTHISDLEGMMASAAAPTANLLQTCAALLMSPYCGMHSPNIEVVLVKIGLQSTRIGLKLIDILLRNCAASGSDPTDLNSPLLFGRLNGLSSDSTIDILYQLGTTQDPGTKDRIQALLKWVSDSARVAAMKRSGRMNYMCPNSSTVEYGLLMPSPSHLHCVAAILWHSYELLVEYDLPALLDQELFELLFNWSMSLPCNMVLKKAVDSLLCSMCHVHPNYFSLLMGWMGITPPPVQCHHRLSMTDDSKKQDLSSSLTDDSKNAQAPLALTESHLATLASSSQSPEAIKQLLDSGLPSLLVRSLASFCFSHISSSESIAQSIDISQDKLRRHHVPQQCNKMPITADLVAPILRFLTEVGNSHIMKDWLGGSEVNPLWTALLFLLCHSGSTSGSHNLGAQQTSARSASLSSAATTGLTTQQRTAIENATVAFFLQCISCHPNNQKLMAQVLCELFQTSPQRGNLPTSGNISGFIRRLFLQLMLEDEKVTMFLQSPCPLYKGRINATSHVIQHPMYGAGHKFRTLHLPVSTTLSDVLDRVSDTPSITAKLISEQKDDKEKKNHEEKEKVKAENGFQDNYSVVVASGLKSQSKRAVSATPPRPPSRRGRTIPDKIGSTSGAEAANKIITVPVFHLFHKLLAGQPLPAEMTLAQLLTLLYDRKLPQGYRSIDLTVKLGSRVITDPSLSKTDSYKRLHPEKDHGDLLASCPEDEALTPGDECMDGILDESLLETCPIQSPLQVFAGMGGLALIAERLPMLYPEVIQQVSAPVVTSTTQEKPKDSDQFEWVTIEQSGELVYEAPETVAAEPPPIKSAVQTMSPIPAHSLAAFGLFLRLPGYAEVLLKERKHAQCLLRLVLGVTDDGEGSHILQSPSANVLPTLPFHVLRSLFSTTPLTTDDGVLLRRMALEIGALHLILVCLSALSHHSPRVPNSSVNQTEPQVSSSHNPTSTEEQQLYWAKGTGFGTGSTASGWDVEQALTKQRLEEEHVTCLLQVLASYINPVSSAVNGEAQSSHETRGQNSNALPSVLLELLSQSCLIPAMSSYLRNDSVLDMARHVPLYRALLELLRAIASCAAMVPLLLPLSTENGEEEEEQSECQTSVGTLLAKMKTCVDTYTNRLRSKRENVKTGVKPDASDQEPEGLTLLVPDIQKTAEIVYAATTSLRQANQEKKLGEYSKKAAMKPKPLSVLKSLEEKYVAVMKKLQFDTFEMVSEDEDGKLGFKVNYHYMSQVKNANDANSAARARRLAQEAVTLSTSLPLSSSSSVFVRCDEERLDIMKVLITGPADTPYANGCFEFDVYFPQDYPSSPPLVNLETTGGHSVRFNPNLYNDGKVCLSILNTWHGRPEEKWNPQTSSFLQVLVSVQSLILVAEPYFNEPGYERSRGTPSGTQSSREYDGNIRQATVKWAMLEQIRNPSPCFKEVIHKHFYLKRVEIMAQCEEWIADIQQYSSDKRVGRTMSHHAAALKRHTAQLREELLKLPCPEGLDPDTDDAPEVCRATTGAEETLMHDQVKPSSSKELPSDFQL

Assay [2] addresses Cy3-labelled SMAC N-terminal peptide, …(Cy3)-Am.
Assay [3] deals with T2, Alexa555-SMAC (WT), a.a. 56-239 with a C-terminal cysteine (UniProt Q9NR28).
T2 sequence (chain, Alexa Fluor 555 on the C-terminal cysteine): T1 sequence (chain, Alexa Fluor 555 on the C-terminal cysteine) with D26V

Changes are numbered by the printed parent chain. No constants are given. Whether binding was seen depends on the method and setting. Some entries that bind do so weakly or less than the wild type.

With “BIRC6 D342A (full-length) (from UniProt Q9NR09 1-4857) (enzyme)”, the binding result in assay [1] and in assay [2] was “no binding” in each case.

Consider “BIRC6 D342A in combination with HRRaR–D (from UniProt Q9NR09 1-4857) (enzyme)”, for which, in assay [3], the binding entry is “binds”. With “BIRC6 DOC domain tip mutant, residues 3189-3193 HRRaR to all Asp (from UniProt Q9NR09 1-4857) (enzyme)”, the binding entry in assay [1] is reported as “binds”. As to “BIRC6 H351D (full-length) (from UniProt Q9NR09 1-4857) (enzyme)”, the binding entry in assay [2] is “no binding”.

These data come from article doi:10.1101/2022.08.30.505748 (bioRxiv, 2022).
